In PubChem BioAssay AID1487 (National Center for Advancing Translational Sciences (NCATS), 2009):
In all, about 200,000 compounds went through this assay and about 25 (0.01%) were called active. The shares of active, inactive and inconclusive entries below differ from those in the screen. The call rests on the fitted dose curve; in most records, active means well fitted inhibition curve with a large enough effect in the signal ratio, with a control signal flat (not every such curve was filed as active); inconclusive means small, poorly fitted or top-dose-only effect, or effect the other way, or a change in a side signal; inactive means flat fitted curve, though single readings scatter; the % refers to the signal ratio. Potencies beside an inconclusive call are fits to weak or partial responses and may not hold up.

Assay: qHTS Assay for Modulators of Lamin A Splicing
Details: HeLa LMNA splicing GFP/RFP minigene ratio, 48 h; ratio change, negative = inhibition: at 46.1 µM (top of the series) unless noted
Outline: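 Read-out is the ratio of GFP to DsRed2 object intensity, acquired by 488 nm laser-scanning cytometry on HeLa lamin A-EGFP minigene reporter cells. Compound incubation 48 hrs at 37 °C in Opti-MEM with 2% FBS; DMSO 0.5% final.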
On the % scale 0 is the no-effect control and ±100 the full control effect; potency means the concentration at half of the fitted maximal effect.

Structure (SMILES) | ratio change, negative = inhibition | Potency
CCOc1ccc(NS(=O)(=O)c2cc3c(cc2Cl)NC(=O)CO3)cc1 | inactive | 
CCCOc1cc(C)c(S(=O)(=O)N2CCOCC2)cc1C | inconclusive: -5.67% | 
S=C1NC2=C(CCC/C2=C\c2ccccc2)C(c2ccccc2)N1 (stereo not given) | inconclusive: -16.8% | 
CCOC(=O)c1ccc(N2C(=O)C=CC2=O)cc1 | inconclusive: -37.7% | 
N#C/C(=C\C1CC=CCC1)c1nc2ccccc2[nH]1 (stereo not given) | inconclusive: -30.1% | 
Cc1ccc(C(=O)/C=C/c2ccccc2[N+](=O)[O-])cc1 | inconclusive: 60.3% [at 46 µM] | 
O/N=C/c1ccccc1OCc1ccc(Cl)cc1 | inconclusive: -30.4% | 
CCCCn1c(=O)c2c(c3ccccc31)OCC(=O)N2 | inactive | 
COc1ccc(NC(=O)N(Cc2cc3cc(OC)c(OC)cc3[nH]c2=O)CC2CCCO2)cc1 (stereo not given) | inconclusive: -15.7% [at 46 µM] | 
O=C(N/N=C/c1cn(-c2cccs2)nc1-c1ccccc1)c1ccccc1O |  | inconclusive: 10 µM [fluorescent, partial curve]
O=C(Cn1c(=O)nc(-c2ccccc2)c2ccccc21)Nc1cccc(C(F)(F)F)c1 |  | inconclusive: 35.5 µM [cytotoxic, single point]
Cc1ccc(C(=O)Nc2cc3c(cc2C)n(C)c(=O)c(=O)n3C)cc1 | inactive | 
O=C(O)c1ccc(CNC(=S)Nc2ccccc2)cc1 | inconclusive: 10.5% [at 46 µM] | 
CCOc1ccc(CNC(=O)C2Cc3ccccc3N2C(=O)CC)cc1OC (stereo not given) | inactive | 
COc1ccc(-n2nnc3c(=O)n(Cc4cc(C)ccc4C)cnc32)cc1 | inconclusive: 8.45% | 
COc1ccc(OC)c(CNC(=O)c2ccc(Sc3ccc(C)cc3)c(N)c2)c1 | inactive | 
CN(C)C(=O)c1ccc(-c2cc(N(C)Cc3ccco3)ncn2)cc1 | inactive | 
O=C(/C=C/c1ccccc1)NC(=S)NNC(=O)c1cccnc1 |  | inconclusive: 35.5 µM [rising, single point]
Cc1cccc(NC(=O)CSc2nccn2Cc2ccc(F)cc2)c1C | inconclusive: 2.61% [at 46 µM] | 
Cc1c(/C=N\NC(=O)C2COc3ccccc3O2)c2ccccc2n1C (stereo not given) |  | inconclusive: 0.794 µM [falling, full curve, poor fit]
CCOC(=O)c1cc2c(nc1N)CC(C)(C)OC2 | inactive | 
CCOC(=O)C1=C(c2ccccc2)NC(SC)=C(C#N)C1c1ccco1 (stereo not given) | inactive | 
CCN(CC)CCNS(=O)(=O)c1ccc(Cl)cc1 | inactive | 
CCN=c1scc(C)n1/N=C/c1ccsc1 | inactive | 
O=C(/C=C/c1ccc(F)cc1)c1ccccc1Br |  | inconclusive: 35.5 µM [cytotoxic, single point]
Cc1cccc(NC(=O)C2c3ccccc3Oc3ccccc32)n1 | inconclusive: -15.3% [at 46 µM] | 
CCN(CC)c1ccc(NC(=O)c2nc3nc(C)cc(C(F)F)n3n2)cc1 | inactive | 
C=CCNCCCCOc1ccc(OCc2ccccc2)cc1 | inconclusive: -12.4% [at 46 µM] | 

Structure (SMILES) | ratio change, negative = inhibition | Potency
CC(C)(C)c1ccc(-c2nnc3sc(-c4ccncc4)nn23)cc1 | inactive | 
CCNS(=O)(=O)c1ccc(CCC(N)=O)cc1 |  | inconclusive: 1.41 µM [activator, full curve, poor fit]
COc1ccc(CNC(=O)CCCN2C(=O)CSc3c2c(C)nn3-c2ccccc2)cc1 | inactive | 
CC(=O)N(Cc1c(C)nn(-c2ccccc2)c1Cl)c1ccc(Cl)cc1 | inactive | 
CC(C)Cn1c(/C=N/Nc2nc3ccccc3[nH]2)nc2ccccc21 | inconclusive: -16.3% | 
CCCOc1cccc(C(=O)Nc2cccc3cccnc23)c1 | inconclusive: -27% [at 46 µM] | 
CC(C)OCCCNC(=O)c1ccc(CSc2nc3cccnc3n2Cc2ccccc2)cc1 | inconclusive: -20.4% [at 46 µM] | 
O=CN/C=C/c1cc(O)ccc1O | inconclusive: -48% [at 46 µM] | 
COc1ccc(-c2nc3ccc(NS(=O)(=O)c4ccc(C)cc4)cc3o2)cc1 | inconclusive: -29.4% [at 46 µM] | 
CCC1=C(c2ccc(C)cc2)S(=O)(=O)N=C1N1CCC(C(=O)Nc2ccccc2F)CC1 | inactive | 
CC(=O)NC(CCS(C)(=O)=O)C(=O)Nc1ccc2c(c1)OCO2 (stereo not given) | inactive | 
CCOC(=O)C1CCCN(c2c(N3CCN(C4CCCCC4)CC3)c(=O)c2=O)C1 (stereo not given) | inactive | 
COc1cc2[nH]c(=S)nc(NCCC(C)C)c2cc1OC | inconclusive: -19.5% [at 46 µM] | 
COCCCn1c(C)csc1=Nc1cccnc1 | inconclusive: 4.59% | 
CC(C)Sc1ccc([N+](=O)[O-])cc1C(=O)Nc1ccncc1 | inconclusive: -11.5% [at 46 µM] | 
Cc1cc(C(=O)Nc2sc3c(c2C#N)CCC(C(C)(C)C)C3)no1 (stereo not given) | inactive | 
CCn1c(COc2ccc3c(c2)OCO3)nnc1SCC(=O)c1ccccc1 | inactive | 
COc1ccc(-c2noc(N3CCC(C(=O)N4CCN(c5cccc(C)c5C)CC4)CC3)n2)cc1 | inconclusive: -22.3% [at 46 µM] | 
CC(OC(=O)c1ccccc1Nc1ccc(SC(F)F)cc1)C(N)=O (stereo not given) | inconclusive: -51.4% | 
CNc1ncc(C(=O)c2ccc(Cl)c(Cl)c2)s1 | inactive | 
CCOC(=O)c1c(-c2cccs2)csc1NC(=O)CCCC(=O)O | inactive: 9.75% [at 0.0737 µM] | 
COc1ccccc1CNc1ncnc2ccc(-c3ccc(C(=O)N(C)C)cc3)cc12 | inconclusive: -20.5% | 
COc1cccc(CNC(=O)Cc2c(C(=O)O)c(C)cn2C)c1 | inactive | 
O=C(Nc1sc2c(c1-c1nc3ccccc3[nH]1)CCCC2)C1CC1 | inconclusive: 12% | 
O=[N+]([O-])c1cc(S(=O)(=O)C(F)(F)F)ccc1N1CCN(c2ccccc2)CC1 |  | inconclusive: 35.5 µM [falling, single point]
COc1ccc(-c2cc(C(F)(F)F)nc(S(=O)(=O)CCCC(=O)Nc3cccnc3Cl)n2)cc1OC | inconclusive: -37.4% [at 9.22 µM] | 
CCCn1c(CN2CCN(c3cccc(Cl)c3)CC2)nc2c1c(=O)n(C)c(=O)n2C | inactive | 
